Results deposited as PubChem BioAssay AID1508588 (Peter MacCallum Cancer Centre, 2020)
Shown is a random part of about 18,000 reagents tested. 790 of them (4.4%) count as active. 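Calls rest on a combination of fold-change classes in drug and vehicle arms, not all shown here.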 Entries without a mark were called inactive. Some reagents were tested in more than one well and are listed for each.

Purpose: 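Genome-wide search for knock-downs that heighten vemurafenib action in melanoma cells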 (primary screen)
Cells: human WM266.4 melanoma cells (BRAF V600 mutant)
Knock-down reagent: siRNA pool against human genes, 40 nM
Duration: 96 h from transfection to read-out
Conditions: vemurafenib 300 nM (about IC25), added 48 h after transfection, for 48 h; comparison arm got DMSO vehicle only
Measured: 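Ratios to non-targeting siRNA for cell gain, counted as DAPI nuclei after minus before drug and averaged over two replicates, and for absorbance-read medium lactate per cell; both binned into fold-change classes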
Reading the numbers: cell gain with vemurafenib: higher = more cell gain than with non-targeting siRNA; lactate per cell with vemurafenib: higher = more lactate made per cell
Hit rule: 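a knock-down counts as enhancing when its fold-change classes with vehicle and with vemurafenib, taken together, show a stronger drug effect on cell gain or lactate per cell; exact class pairs not stated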
Calls: active = enhances vemurafenib effect; inactive = no enhancement seen

The opening 6 entries, ahead of the listing:
no.	Target gene	PubChem SID	cell gain with vemurafenib	lactate per cell with vemurafenib
1	NUP43 (nucleoporin 43)	SID152147751	0.2	2.29
2	TCF4 (transcription factor 4)	SID152154725	0.66	0.78
3	JAG1 (jagged canonical Notch ligand 1)	SID134315424	0.39	0.76
4	FADS2 (fatty acid desaturase 2)	SID134313097	0.67	0.62
5	GNG12 (G protein subunit gamma 12)	SID152150313	0.29	1.87
6	SUV39H2 (SUV39H2 histone lysine methyltransferase)	SID134313380	0.11	1.61

The listing, from the first entry:
no.	Target gene	PubChem SID	cell gain with vemurafenib	lactate per cell with vemurafenib
1	NUP43 (nucleoporin 43)	SID152147751	0.2	2.29
2	TCF4 (transcription factor 4)	SID152154725	0.66	0.78
3	JAG1 (jagged canonical Notch ligand 1)	SID134315424	0.39	0.76
4	FADS2 (fatty acid desaturase 2)	SID134313097	0.67	0.62
5	GNG12 (G protein subunit gamma 12)	SID152150313	0.29	1.87
6	SUV39H2 (SUV39H2 histone lysine methyltransferase)	SID134313380	0.11	1.61
7	CYP26C1 (cytochrome P450 family 26 subfamily C member 1)	SID152153297	0.37	1.16
8	UBA1 (ubiquitin like modifier activating enzyme 1)	SID152150752	0.5	0.52
9	TERF2IP (TERF2 interacting protein)	SID152147278	0.01	1.99
10	RPH3A (rabphilin 3A)	SID134324068	0.37	0.4
11	SNX14 (sorting nexin 14)	SID152147012	0.56	0.94
12	FLJ46838 (retired record)	SID135625331	1.07	0.8
13	GLO1 (glyoxalase I)	SID152147005	0.62	0.62
14	OLA1 (Obg like ATPase 1)	SID135622990	0.83	0.83
15	TP53RK (TP53 regulating kinase)	SID135620611	0.53	0.48
16	TP53RK (TP53 regulating kinase)	SID135620611	0.52	0.73
17	EFL1 (elongation factor like GTPase 1)	SID152153636	0.72	0.59
18	MYEF2 (myelin expression factor 2)	SID152146850	0.25	0.52
19	RAC3 (Rac family small GTPase 3)	SID135621657	1.01	0.82
20	LCN1 (lipocalin 1)	SID134313489	0.62	0.95
21	TPO (thyroid peroxidase)	SID134314562	0.05	0.63
22	CHD1L (chromodomain helicase DNA binding protein 1 like)	SID135622725	0.6	1.52
23	FAM114A1 (family with sequence similarity 114 member A1)	SID134319588	0.92	0.45
24	DUSP8 (dual specificity phosphatase 8)	SID135620704	0.5	0.91
25	GPR183 (G protein-coupled receptor 183)	SID152147676	1.16	0.56
26	KAT5 (lysine acetyltransferase 5)	SID134311719	0.14	1.32
27	SWSAP1 (SWIM-type zinc finger 7 associated protein 1)	SID134321814	0.77	1.75
28	TAFAZZIN (tafazzin, phospholipid-lysophospholipid transacylase)	SID134314338	0.7	0.5
29	POLR2K (RNA polymerase II, I and III subunit K)	SID135622236	0.64	0.65
30	SASS6 (SAS-6 centriolar assembly protein)	SID134322965	0.15	1.27
31	EIF4EBP2	SID135623570	0.67	0.9
32	COL16A1 (collagen type XVI alpha 1 chain)	SID152151745	0.53	-0.2
33	TBC1D8 (TBC1 domain family member 8)	SID152154777	0.17	1.14
34	BTNL9 (butyrophilin like 9)	SID152153420	0.94	0.78
35	CDC42EP2 (CDC42 effector protein 2)	SID134316504	0.7	0.6
36	ANKRD42 (ankyrin repeat domain 42)	SID135623621	0.77	0.43
37	CIT (citron rho-interacting serine/threonine kinase)	SID56478810	0.01	1.7
38	GALNT14 (polypeptide N-acetylgalactosaminyltransferase 14)	SID152149607	0.9	1.36
39	PMS2P5	SID152152050	0.83	0.96
40	TTLL11 (tubulin tyrosine ligase like 11)	SID135623132	0.62	0.84
41	B9D2 (B9 domain containing 2)	SID134318745	0.87	1.44
42	YPEL3 (yippee like 3)	SID135623423	0.58	1.19
43	RETREG1 (reticulophagy regulator 1)	SID135623241	0.4	1.29
44	ZFYVE16 (zinc finger FYVE-type containing 16)	SID152149624	0.04	1.6
45	TBC1D3F (TBC1 domain family member 3F)	SID134318910	0.81	0.64
46	PDE2A (phosphodiesterase 2A)	SID134312688	0.68	0.75
47	WNT4 (Wnt family member 4)	SID152151801	0.27	1.25
48	OR4C45	SID134329945	1	0.54
49	KLHL25 (kelch like family member 25)	SID152151105	0.6	0.94
50	TSPAN8 (tetraspanin 8)	SID152153446	0.22	0.84
51	TECR (trans-2,3-enoyl-CoA reductase)	SID152150354	0.54	1.34
52	PSMA7 (proteasome 20S subunit alpha 7)	SID134310318	-0.11	1.86
53	LGSN (lengsin, lens protein with glutamine synthetase domain)	SID134313303	0.88 (active)	0.47
54	DBT (dihydrolipoamide branched chain transacylase E2)	SID152147309	0.86	0.73
55	SNX27 (sorting nexin 27)	SID152149866	0.62	1
56	BMP6 (bone morphogenetic protein 6)	SID135624215	0.8	0.73
57	CEP170B (centrosomal protein 170B)	SID135624268	0.73	0.84
58	H1-3 (H1.3 linker histone, cluster member)	SID134316344	1.21	0.44
59	CLCN4 (Cl-/H+ antiporter 4)	SID135621153	0.41	1.35
60	CFAP221 (cilia and flagella associated protein 221)	SID152149119	0.58	1.58
61	RNF2 (ring finger protein 2)	SID152154932	0.64	0.8
62	RPL3 (ribosomal protein L3)	SID152156617	-0.08	1.88
63	RAB25 (RAB25, member RAS oncogene family)	SID152151421	0.68	0.9
64	HAPLN2 (hyaluronan and proteoglycan link protein 2)	SID134318169	1.28	0.34
65	SH2D3A (SH2 domain containing 3A)	SID152154745	0.82	1.23
66	MAFK (MAF bZIP transcription factor K)	SID152148619	1.03	0.93
67	FOXN4 (forkhead box N4)	SID134326743	0.81	1.01
68	DLG1 (discs large MAGUK scaffold protein 1)	SID152148481	0.78	0.38
69	DLG1 (discs large MAGUK scaffold protein 1)	SID152148481	0.53	0.57
70	DRAP1 (DR1 associated protein 1)	SID134313815	0.49	1.51
71	NPFFR2 (neuropeptide FF receptor 2)	SID134311035	0.64	0.78
72	FCRL4 (Fc receptor like 4)	SID134315083	0.71	0.92
73	PITPNB (phosphatidylinositol transfer protein beta)	SID152152054	0.59	0.75
74	TRIM26 (tripartite motif containing 26)	SID152151511	1.12	0.7
75	SMAP2 (small ArfGAP2)	SID134318384	1.04	0.44
76	FHIT (fragile histidine triad diadenosine triphosphatase)	SID135620915	0.59	1.04
77	DLX2 (distal-less homeobox 2)	SID135622209	0.72	0.86
78	FAM133B (family with sequence similarity 133 member B)	SID152150876	0.62	1.07
79	TAS2R5 (taste 2 receptor member 5)	SID152151015	1.07	0.65
80	CFAP74 (cilia and flagella associated protein 74)	SID135624500	0.92	0.83
81	CFAP74 (cilia and flagella associated protein 74)	SID152155933	0.34	0.94
82	ELF2 (E74 like ETS transcription factor 2)	SID134317010	0.48	0.4
83	KCNQ3 (potassium voltage-gated channel subfamily Q member 3)	SID134311691	0.63	0.96
84	WNK3 (WNK lysine deficient protein kinase 3)	SID152156066	0.83	1.11
